The results are deposited in PubChem (AID1159506; NCATS, 2015).

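Luminescence from an EWS-FLI1 target-promoter (NR0B1) reporter, set against a CMV-promoter reporter, two days after silencing single genes in TC32 Ewing sarcoma cells.
Each siRNA was applied at 20 nM.
A z-score of the log NR0B1-over-CMV signal, less the median of siRNAs with the same seed; more negative means a stronger specific loss of the NR0B1 reporter.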

The strongest results of the screen are mostly left out here.
Sequences are the guide (antisense) strand, without overhang.

UAUGAGUCCUCUGUCCCGG against LOC728353 read seed-corrected z-score 0.1202.
AACCGUCUGAAUAACUUGG against ADNP read seed-corrected z-score -0.2265.
AUAAUAGCCUCCAUCAUUG against EMILIN1 read seed-corrected z-score -1.096.
UCUGUAGAAAGUCACGAGC against TMEM204 read seed-corrected z-score 0.519.
UGUCUACAAAUGUAGCUCC against FEM1C read seed-corrected z-score -0.3378.
UCUCCACCAAUCAUAACUG against CDC42 read seed-corrected z-score -0.8903.
AAAGUAGGAAGUCCGAACC against GEN1 read seed-corrected z-score -0.215.
UUUUCCACCAAUACUUCCU against VAMP1 read seed-corrected z-score 0.7264.
AAGGUAAUUAGGCAGGUCC against LPCAT1 read seed-corrected z-score 0.9907.
UUUGGUAGCCUGCACAUCC against LIPT1 read seed-corrected z-score 0.2652.
UUAAGUUCAGUUCUUCGGG against SULT2A1 read seed-corrected z-score 0.03471.
AAAUGUAGCAAUACCAUUG against ATRX read seed-corrected z-score -0.5981.
UUUGUUGUAGUAAUAGAAC against MEIG1 read seed-corrected z-score -0.6089.
UACCUUUGCAUCAUCUAUG against MINPP1 read seed-corrected z-score -1.29.
UCCGGAUCCAAGUUGCGUG against SLC39A5 read seed-corrected z-score 0.7894.
UGUUGUUGGACUGGAAUCC against XPNPEP2 read seed-corrected z-score 0.07056.
UUGGUUGAGAGUACAGAGA against IL20RB read seed-corrected z-score 0.1767.
UUCAUUCCUAGGUACAGGC against FGF16 read seed-corrected z-score -0.2827.
AUUCGAAAAAUGGAGUUCG against LOC644794 read seed-corrected z-score 0.3054.
AAUGUGCUGAAGGUCGUGC against ALX3 read seed-corrected z-score -0.9182.
UAAUGGUAAAGUUCGGUUC against XRN2 read seed-corrected z-score 0.437.
UAAGCUGUCAGGUAAUGCC against RFX4 read seed-corrected z-score 0.7392.
UGAGGUAGAACUAGGGUGC against CDKN1A read seed-corrected z-score -1.152.
AAUAGGAAUAAGAUUGUCC against CFHR4 read seed-corrected z-score -1.096.
AGAGCUCAAAGCAUAGUCG against SPAG4 read seed-corrected z-score 0.01614.

For reference, 3 entries once more:

| Sequence | gene | seed-corrected z-score |
|---|---|---|
| `UCCGGAUCCAAGUUGCGUG` | SLC39A5 | 0.7894 |
| `UUUUCCACCAAUACUUCCU` | VAMP1 | 0.7264 |
| `AAUAGGAAUAAGAUUGUCC` | CFHR4 | -1.096 |